Test results reported in article doi:10.1101/719625.
No constants are given. Whether binding was seen depends on the method and setting. Binding seen in cells or lysates may run through a third protein. Some entries that bind do so weakly or less than the wild type.

Sequences of proteins named here, by UniProt entry; tags and fusion partners are left off.
UniProt Q5TZA2: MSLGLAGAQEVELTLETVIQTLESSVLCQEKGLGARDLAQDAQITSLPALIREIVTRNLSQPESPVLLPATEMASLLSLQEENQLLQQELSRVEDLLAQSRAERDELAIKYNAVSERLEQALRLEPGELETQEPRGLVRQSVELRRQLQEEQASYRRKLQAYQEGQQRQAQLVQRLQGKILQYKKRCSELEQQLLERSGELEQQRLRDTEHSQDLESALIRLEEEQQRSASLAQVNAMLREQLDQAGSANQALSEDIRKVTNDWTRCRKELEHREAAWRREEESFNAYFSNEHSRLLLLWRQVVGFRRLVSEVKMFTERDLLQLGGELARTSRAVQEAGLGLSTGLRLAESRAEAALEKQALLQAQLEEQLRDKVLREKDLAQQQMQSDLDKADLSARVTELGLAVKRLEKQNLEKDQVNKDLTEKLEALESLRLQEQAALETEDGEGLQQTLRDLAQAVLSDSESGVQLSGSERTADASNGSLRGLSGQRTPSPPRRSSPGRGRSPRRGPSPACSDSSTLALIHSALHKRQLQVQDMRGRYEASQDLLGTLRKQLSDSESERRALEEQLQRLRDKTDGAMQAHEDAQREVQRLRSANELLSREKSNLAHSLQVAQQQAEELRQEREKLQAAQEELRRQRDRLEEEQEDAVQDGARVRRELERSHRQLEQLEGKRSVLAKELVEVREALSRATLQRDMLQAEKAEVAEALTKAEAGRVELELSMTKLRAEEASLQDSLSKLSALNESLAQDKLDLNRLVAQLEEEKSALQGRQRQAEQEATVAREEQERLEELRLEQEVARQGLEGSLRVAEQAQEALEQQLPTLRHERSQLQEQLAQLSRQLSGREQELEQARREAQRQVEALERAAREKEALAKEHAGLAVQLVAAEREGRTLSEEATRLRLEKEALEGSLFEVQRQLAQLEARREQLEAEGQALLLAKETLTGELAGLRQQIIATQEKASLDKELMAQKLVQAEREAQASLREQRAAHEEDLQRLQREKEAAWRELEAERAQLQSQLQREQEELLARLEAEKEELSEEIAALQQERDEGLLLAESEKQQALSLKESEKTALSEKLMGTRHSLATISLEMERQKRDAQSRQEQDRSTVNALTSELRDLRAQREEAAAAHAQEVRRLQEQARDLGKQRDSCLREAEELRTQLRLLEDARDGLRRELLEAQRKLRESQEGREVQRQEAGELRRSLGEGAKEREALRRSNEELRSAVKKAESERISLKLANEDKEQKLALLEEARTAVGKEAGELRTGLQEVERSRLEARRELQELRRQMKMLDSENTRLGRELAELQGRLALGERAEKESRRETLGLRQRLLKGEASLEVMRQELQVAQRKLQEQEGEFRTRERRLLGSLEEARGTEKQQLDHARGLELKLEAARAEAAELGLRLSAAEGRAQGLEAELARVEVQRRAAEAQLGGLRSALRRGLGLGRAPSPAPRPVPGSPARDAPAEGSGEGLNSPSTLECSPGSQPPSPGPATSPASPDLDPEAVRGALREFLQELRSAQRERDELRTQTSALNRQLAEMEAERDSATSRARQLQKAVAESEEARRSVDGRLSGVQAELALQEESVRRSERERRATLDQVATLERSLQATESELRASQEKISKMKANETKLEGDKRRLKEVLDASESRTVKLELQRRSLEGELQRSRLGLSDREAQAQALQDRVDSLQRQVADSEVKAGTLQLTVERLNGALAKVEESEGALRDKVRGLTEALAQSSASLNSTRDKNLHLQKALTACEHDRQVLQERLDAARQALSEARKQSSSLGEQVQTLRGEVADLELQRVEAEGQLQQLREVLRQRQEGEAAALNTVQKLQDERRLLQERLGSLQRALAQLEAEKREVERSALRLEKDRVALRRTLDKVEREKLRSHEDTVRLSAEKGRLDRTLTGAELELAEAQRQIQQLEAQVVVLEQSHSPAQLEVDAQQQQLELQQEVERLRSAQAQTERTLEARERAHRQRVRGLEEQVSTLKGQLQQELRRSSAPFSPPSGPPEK

Target: ZikV-NS5-GFP (Zika virus)
Experiment: pull-down

With “rootlet coiled-coil protein (CROCC/Rootletin) (from UniProt Q5TZA2 1-2017)” the binding was “binds”.

B1: ADP ribosylation factor-like 2-binding protein (ARL2BP/BART) (protein, UniProt Q9Y2Y0 1-163)
chain: MDALEGESFALSFSSASDAEFDAVVGYLEDIIMDDEFQLLQRNFMDKYYLEFEDTEENKLIYTPIFNEYISLVEKYIEEQLLQRIPEFNMAAFTTTLQHHKDEVAGDIFDMLLTFTDFLAFKEMFLDYRAEKEGRGLDLSSGLVVTSLCKSSSLPASQNNLRH
B1 was tested, and the binding was “binds”.
